Assay [1] deals with T1, clone N1: N-terminally truncated form of the sodium-dependent phosphate transport protein 2b (human) (UniProt O95436).
T1 sequence (looked up): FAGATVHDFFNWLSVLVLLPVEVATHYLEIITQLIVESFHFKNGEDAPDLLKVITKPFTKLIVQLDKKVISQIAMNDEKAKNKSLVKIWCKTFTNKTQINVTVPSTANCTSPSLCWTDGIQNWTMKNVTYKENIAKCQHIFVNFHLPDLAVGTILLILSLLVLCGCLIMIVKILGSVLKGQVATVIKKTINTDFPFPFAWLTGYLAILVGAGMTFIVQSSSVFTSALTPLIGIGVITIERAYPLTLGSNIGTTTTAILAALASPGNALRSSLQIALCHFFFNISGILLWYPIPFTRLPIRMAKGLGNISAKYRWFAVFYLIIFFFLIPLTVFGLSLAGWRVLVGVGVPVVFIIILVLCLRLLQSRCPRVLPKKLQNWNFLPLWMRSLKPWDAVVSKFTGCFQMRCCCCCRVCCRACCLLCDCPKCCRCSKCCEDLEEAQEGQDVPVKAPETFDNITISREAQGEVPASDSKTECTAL
The experiment in a line: immunoscreening of an OVCAR-3 cDNA phage expression library.

Assay [2] concerns the target T2, wild type 312-340 peptide of SLC34A2 (Example 6; printed as SEQ ID NO: 8) (human).
T2 sequence (peptide): SPSLCWTDGIQNWTM
The experiment in a line: dot blot.

Results are given in words; binding and its absence hold for the method and conditions named. Some binding calls cover weakened binding; strength is not graded here.

Experimental findings from patent US20140193417A1 (LUDWIG INSTITUTE FOR CANCER RESEARCH, published 2014) are described below.

B1: Murine mAb MX35 (IgG1) (antibody, V domains shown)
VH: QVQLKQSGAELVKPGASVKMSCKASGYTFTGYNIHWVKQTPGQGLEWIGAIYPGNGDTSYKQKFRGKASLTADTSSSTVYMQLSSLTSEDSAVYYCARGETARATFAYWGQGTLVTVSA
VL: DIQMTQTTSSLPASLGDRVTISCSASQDIGNFLNWYQQKPDGTVKVLIYYTSSLYSGVPSRFSGSGSGTDYSLTISNLEPEDIATYYCQQYSKLPLTFGAGTKLELKR
notes: also called MX35 MAb; monoclonal antibody MX35
Consider B1, for which the binding result in assay [1] and in assay [2] was “binds” in each case.
